Reference: patent US9120791B2, “Indolizine compounds, a process for their preparation and pharmaceutical compositions containing them” (LES LABORATOIRES SERVIER, priority 2012, dated 2015)
Where a name gives a salt, the structure may show the parent alone.

Tested on: RS4;11 leukaemia tumour line
Assay: In vitro cytotoxicity (Microculture Tetrazolium Assay, 48 hours)
Type: cell-based
Settings: Homo sapiens, RS4-11, 48 h, read-out: IC50 (nM) MTT RS4
Description: The cytotoxicity studies were carried out on the RS4;11 leukaemia tumour line.
The cells are distributed onto microplates and exposed to the test compounds for 48 hours.

Which IC50 does the source give for `O=C(c1cc(-c2cc3c(cc2C(=O)N2Cc4ccccc4C[C@H]2CN2CCOCC2)OCO3)n2ccncc12)N(c1ccc(O)cc1)c1cccc(F)c1` [Example 121, N-(3-Fluorophenyl)-N-(4-hydroxyphenyl)-6-(6-{[(3S)-3-(morpholin-4-ylmethyl)-3,4-dihydroisoquinolin-2(1H)-yl]carbonyl}-1,3-benzodioxol-5-yl)pyrrolo-[1,2-a]pyrazine-8-carboxamide hydrochloride] here?
Its IC50 is 445 nM.
